Experimental data: PubChem BioAssay AID1671195 (Yale University, 2021)
The deposit covers about 22,000 reagents; shown is an unselected part. In the full data, about 1,510 (6.9%) were called active. 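Active includes knockdowns raising or lowering LDL uptake; positive z-scores mean more uptake, negative mean less.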

Assay: 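Regulators of LDL receptor activity judged by labelled LDL uptake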 (primary screen)
Cell system: human Huh7 hepatoma cells
Reagents: siRNA pool against human genes, 18 nM
Duration: about 2 to 2.5 days of knockdown, then 8 h LDL uptake
Treatment: DiI-labelled LDL at 30 µg/ml for 8 h, in lipoprotein-deficient serum medium
Detection: 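Fluorescent LDL signal imaged in cells, scaled to the plate median, robust z-score for each replicate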
Direction: robust z-score: higher = more LDL uptake after knockdown
Rule for the call: 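a gene counts as active if at least two replicate z-scores exceed ±2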

gene | robust z-score, replicate 1 | robust z-score, replicate 2 | robust z-score, replicate 3 | activity call
UBASH3B (ubiquitin associated and SH3 domain containing B) | -0.594 | -0.908 | -0.389 | inactive
TLR8 (toll like receptor 8) | -0.533 | -0.92 | -0.811 | inactive
LOC440860 (retired record) | -0.666 | -0.899 | -1.08 | inactive
LINC02593 (long independently transcribed non-coding RNA 2593) | 0.211 | 0.418 | 0.451 | inactive
LOC388628 (retired record) | 1.52 | 1.14 | 1.94 | inactive
KLHL15 (kelch like family member 15) | 0.853 | 0.781 | 1.66 | inactive
LOC441428 (retired record) | 0.128 | 0.244 | 0.0704 | inactive
SLC25A5 | -0.153 | -0.246 | -0.269 | inactive
FXR2 (FMR1 autosomal homolog 2) | 0.602 | 0.392 | 0.804 | inactive
MGAT5B | -1.61 | -1.59 | -1.92 | inactive
GPR18 (G protein-coupled receptor 18) | 0.222 | 0.239 | -0.189 | inactive
CDX1 (caudal type homeobox 1) | -0.827 | -0.734 | 0.178 | inactive
SNRNP200 (small nuclear ribonucleoprotein U5 subunit 200) | 0.294 | -0.00948 | 0.488 | inactive
VAMP7 (vesicle associated membrane protein 7) | 0.149 | 0.123 | 0.608 | inactive
NDOR1 (NADPH dependent diflavin oxidoreductase 1) | 1.21 | -0.23 | 0.328 | inactive
SCARF1 (scavenger receptor class F member 1) | 1.34 | 1.42 | 2.03 | inactive
JPT2 (Jupiter microtubule associated homolog 2) | 2.04 | 2.31 | 2.23 | active
PRIM2 (DNA primase subunit 2) | -0.558 | -0.582 | -0.362 | inactive
GATC (glutamyl-tRNA amidotransferase subunit C) | -0.928 | -1 | -1.01 | inactive
LOC128629 (retired record) | -0.162 | -0.0573 | 0.406 | inactive
LOC387941 (retired record) | -0.928 | -0.996 | -0.955 | inactive
MIR3150BHG (MIR3150B host gene) | 1.88 | 1.51 | 2.12 | inactive
PKDCC (protein kinase domain containing, cytoplasmic) | 0.538 | 0.436 | 0.831 | inactive
LOC389116 (retired record) | -0.624 | -0.908 | -0.957 | inactive
ST8SIA6 (ST8 alpha-N-acetyl-neuraminide alpha-2,8-sialyltransferase 6) | 1.33 | 0.941 | 1.27 | inactive
LOC392176 (retired record) | -0.131 | -0.246 | 0.00677 | inactive
GPR87 (G protein-coupled receptor 87) | 0.108 | -1.06 | -0.62 | inactive
KCTD8 (potassium channel tetramerization domain containing 8) | 1.08 | 1.69 | 0.716 | inactive
REXO5 (RNA exonuclease 5) | -0.613 | -0.649 | -0.071 | inactive
PPIG (peptidylprolyl isomerase G) | 1.58 | 0.415 | 1.59 | inactive
HDHD5 (haloacid dehalogenase like hydrolase domain containing 5) | -1.13 | -2.91 | -0.717 | inactive
SERPINA5 (serpin family A member 5) | 2.07 | 1.14 | 2.36 | active
IDE (insulin degrading enzyme) | 0.633 | -0.14 | -0.0163 | inactive
LOC440336 (retired record) | 2.95 | 1.86 | 2.41 | active
HK1 (hexokinase 1) | -0.657 | -1.09 | -0.3 | inactive

A few values from the entries so far:
SERPINA5 (serpin family A member 5), robust z-score, replicate 2: 1.14
Under “activity call”, MIR3150BHG (MIR3150B host gene) shows inactive
For “activity call”, SLC25A5 is entered as inactive
Value for JPT2 (Jupiter microtubule associated homolog 2) under “robust z-score, replicate 1”: 2.04
For “robust z-score, replicate 3”, LOC387941 (retired record) has -0.955
GATC (glutamyl-tRNA amidotransferase subunit C), robust z-score, replicate 2: -1

Continued.
gene | robust z-score, replicate 1 | robust z-score, replicate 2 | robust z-score, replicate 3 | activity call
LGALS12 (galectin 12) | 1.11 | 1.12 | 0.775 | inactive
LOC441708 (retired record) | -1.98 | -1.88 | -1.59 | inactive
ZNF699 (zinc finger protein 699) | 0.291 | 0.514 | 0.0694 | inactive
FLAD1 (flavin adenine dinucleotide synthetase 1) | 1.12 | 0.242 | 1.61 | inactive
DHDH (dihydrodiol dehydrogenase) | 1.28 | 1.33 | 1.45 | inactive
RFESD (Rieske Fe-S domain containing) | 3.54 | 2.95 | 3.16 | active
DUXA (double homeobox A) | -0.0988 | -0.495 | -0.781 | inactive
MCOLN1 (mucolipin TRP cation channel 1) | 1.26 | 0.335 | 0.531 | inactive
LOC440276 (retired record) | 1.05 | 0.0412 | 0.973 | inactive
LOC441042 (retired record) | -0.458 | -1.25 | -0.778 | inactive
C17orf100 (chromosome 17 open reading frame 100) | 1.89 | 1.8 | 2.49 | inactive
RIOK3 (RIO kinase 3) | -0.473 | -0.0155 | 0.318 | inactive
GPATCH4 (G-patch domain containing 4 (gene/pseudogene)) | 0.657 | 1.37 | 0.316 | inactive
LRP2BP (LRP2 binding protein) | -0.127 | -1.02 | -0.333 | inactive
MT3 (metallothionein 3) | -0.678 | -1.84 | -0.968 | inactive
CDH12 (cadherin 12) | -0.704 | -1.03 | -0.917 | inactive
PSEN1 (presenilin 1) | -1.55 | -1.63 | -0.777 | inactive
LINC00868 (long independently transcribed non-coding RNA 868) | 2.2 | 1.65 | 2.37 | active
TMEM257 (retired record) | -0.416 | -0.489 | -0.585 | inactive
RFX8 (regulatory factor X8) | -0.851 | -0.689 | -0.375 | inactive
DYNLT2B (dynein light chain Tctex-type 2B) | -0.896 | -0.587 | -0.497 | inactive
DEFB1 (defensin beta 1) | 0.488 | 0.724 | -0.563 | inactive
KCNQ1 (potassium voltage-gated channel subfamily Q member 1) | 0.138 | -0.516 | 0.552 | inactive
RUVBL2 (RuvB like AAA ATPase 2) | 0.131 | 0.295 | -0.869 | inactive
LOC440250 (retired record) | 1.25 | 0.925 | 0.813 | inactive
USP15 (ubiquitin specific peptidase 15) | -1.11 | -1.21 | -1.17 | inactive
NRN1 (neuritin 1) | 1.72 | 0.735 | 1.61 | inactive
PDZD11 (PDZ domain containing 11) | 0.233 | -0.562 | 0.105 | inactive
SLC38A3 | -0.206 | 0.614 | -0.977 | inactive
CRISP1 (cysteine rich secretory protein 1) | 0.771 | 1.31 | 0.147 | inactive
YAF2 (YY1 associated factor 2) | 2.53 | 1.62 | 2.57 | active
C2CD4A (C2 calcium dependent domain containing 4A) | 2.65 | 1.63 | 1.12 | inactive
STARD3NL (STARD3 N-terminal like) | -1.62 | -0.759 | -1.6 | inactive
